# Test results reported in PubChem BioAssay AID624297 (National Center for Advancing Translational Sciences (NCATS), 2012).
# About 6,200 (1.8%) of roughly 340,000 compounds were called active. The shares of active, inactive and inconclusive entries below differ from those in the screen. The call rests on the fitted dose curve; in most records, active means well fitted activation curve with a large enough effect; inconclusive means small, poorly fitted or top-dose-only effect; inactive means no such curve, though single readings can be large or run the other way. A potency beside an inconclusive call is a rough fit, not a confirmed value.
# Assay: A quantitative high throughput screen for small molecules that induce DNA re-replication in SW480 colon adenocarcinoma cells. Further: nearly all actives have a fitted effect of over 55% in size. On re-replication activation: % of control where 0% means no effect.
# Conditions: Hoechst DNA content imaging, 48 h; re-replication activation: at 46.1 µM (top of the series) unless noted
# Summary of the method: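 Image-based read-out: total Hoechst fluorescence of nuclei (405 nm excitation, 500-530 nm emission), with hits raising the fraction of high-intensity nuclei. SW480 colon cells incubated 48 hr with compounds at 37 C.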
# Potency means the concentration at half of the fitted maximal effect.
SMILES,Potency,re-replication activation
O=C1C(=Cc2cccn2-c2ccccc2)C(=O)c2ccccc21,active: 18.4 µM,
CCc1nnc(NC(=O)c2nc(S(=O)(=O)Cc3cccc(C)c3)ncc2Cl)s1,active: 5.8 µM,
Cc1ccc2nc(Cl)c(/C=C/C(=O)c3ccco3)cc2c1,,inactive: -3.41%
CC1CCC2C(C1)c1sc(=O)[nH]c1SC2(C)C (stereo not given),,inactive: 2.27%
Cn1c(SSc2ccc(-c3cccnc3)n2C)ccc1-c1cccnc1,"inconclusive: 23.1 µM [activator, single point]",
CCCCCC(=O)N1CC2(CC(c3cccc(NC(=O)CC(c4ccccc4)c4ccccc4)c3)=NO2)C[C@@H]1C(N)=O (stereo not given in full),"inconclusive: 18.4 µM [activator, partial curve, poor fit]",
CN1CCN(C(=S)Nc2ccc(Cl)c(Cl)c2)CC1,"inconclusive: 29.1 µM [activator, partial curve, poor fit]",
Cc1c(/C=N/n2cnnc2)c2ccccc2n1CCOc1ccc(Cl)cc1,"inconclusive: 23.1 µM [activator, partial curve, poor fit]",
O=C(NN=Cc1ccc(O)cc1O)c1ccccc1NS(=O)(=O)c1cccs1,"inconclusive: 29.1 µM [activator, single point]",
COc1ccc(NC(=O)CSc2c3c(nc4cc(Cl)ccc24)CCCC3)cc1OC,"inconclusive: 29.1 µM [activator, single point]",
C=CCN1C(=O)c2ccccc2NC1c1ccc(Br)s1 (stereo not given),,inactive: 5.43%
S=C(NCCc1ccccc1)N1CCn2cccc2C1c1ccncc1 (stereo not given),"inconclusive: 18.4 µM [activator, single point]",
Cc1ccc(-c2cc(-c3ccc(C)cc3O)[nH]n2)cc1,,inactive: 0.398%
OC(CNCC1(N2CCCCC2)CCCCC1)COc1ccc(Cl)cc1Cl (stereo not given),"inconclusive: 29.1 µM [activator, single point]",
Cc1ccc(S(=O)(=O)N2CCN(C(=O)COC(=O)CNC(=O)c3ccccc3)CC2)c(C)c1,"inconclusive: 3.66 µM [activator, full curve, poor fit]",
CCOC(=O)c1sc2nc(N3CCOCC3)c3c(c2c1N)CCN(Cc1ccccc1)C3,"inconclusive: 4.11 µM [activator, full curve, poor fit]",
O=C(Cc1cccc(NC(=O)C2CCCN(C(=O)C3CC3)C2)c1)Nc1ccc(C(=O)N2CCOCC2)cc1 (stereo not given),,inactive: 6.69% [at 9.22 µM]
CC(C)C[C@@H](CN1CCCC1CN1C(=S)NC[C@@H]1Cc1ccc(O)cc1)N1C[C@H](Cc2ccc(O)cc2)N(CC2CCCCC2)C1=S (stereo not given in full),"inconclusive: 6.51 µM [activator, single point]",
Cc1cc(S(=O)(=O)N2CCCCC2)ccc1OCC(=O)N1CCCC1,,inactive: -8.76%
Cc1cc(OCC(=O)Nc2ccc(S(=O)(=O)N3CCN(C)CC3)cc2)cc(C)c1Cl,"inconclusive: 0.116 µM [activator, full curve, poor fit]",
O=C(Nc1ccccc1Cl)c1ccc2ccccc2c1,"inconclusive: 29.1 µM [activator, single point]",
COC(=O)[C@H](CCSC)NC(=O)Nc1cccc(C)c1C,"inconclusive: 23.1 µM [activator, single point]",
O=C(O)c1ccc(/C=N/NC(=O)c2cc(-c3cccs3)nc3ccccc23)cc1,,inactive: -2.09%

# Exported as tab-separated lines: 4 of the compounds above
SMILES	Potency	re-replication activation
CN1CCN(C(=S)Nc2ccc(Cl)c(Cl)c2)CC1	inconclusive: 29.1 µM [activator, partial curve, poor fit]	
Cc1c(/C=N/n2cnnc2)c2ccccc2n1CCOc1ccc(Cl)cc1	inconclusive: 23.1 µM [activator, partial curve, poor fit]	
O=C(NN=Cc1ccc(O)cc1O)c1ccccc1NS(=O)(=O)c1cccs1	inconclusive: 29.1 µM [activator, single point]	
COc1ccc(NC(=O)CSc2c3c(nc4cc(Cl)ccc24)CCCC3)cc1OC	inconclusive: 29.1 µM [activator, single point]	

# More structures

SMILES,Potency,re-replication activation
O=C(Nc1nc2ccccc2s1)C1CCCO1 (stereo not given),,inactive: -0.203%
CC1CCN(C(=O)CSCC(=O)O)CC1,,inactive: -5.51%
COc1cc(/C=N/NC(=O)c2ccccn2)ccc1OC(=O)c1ccccc1Br,"inconclusive: 18.4 µM [activator, partial curve, poor fit]",
COC(=O)c1[nH]c2ccc(Cl)cc2c1NC(=O)CCN1CCN(C2CCCCC2)CC1,"inconclusive: 29.1 µM [activator, single point]",
Cc1ccc(C)c(CNS(=O)(=O)c2c(C)[nH]c(C)c2C(=O)N2CCCCC2)c1,"inconclusive: 1.03 µM [activator, partial curve]",
CCOC(=O)CC1=CSC2=NS(=O)(=O)CCN12,,inactive: -1.52%
CCCC(=O)OCC(=O)NCc1ccc(Cl)cc1,,inactive: -3.19%
CCCCNC(=O)Cn1c(=O)c2c(ncn2CCC(C)C)n(Cc2ccccc2)c1=O,,inactive: 0.751%
CCC(=O)c1c[nH]c(C(=O)N2CCN(c3ccccc3)CC2)c1,"inconclusive: 2.31 µM [activator, single point]",
CC(=O)N1c2ccc(S(=O)(=O)NCCc3ccccc3)cc2CC1C (stereo not given),,inactive: -1.57%
COc1cccc(/C=N/c2sc(Cc3ccccc3)c(C)c2C(N)=O)c1O,"inconclusive: 23.1 µM [activator, single point]",
O=C(COC(=O)/C=C/c1ccc(Br)o1)Nc1cccc(S(=O)(=O)N2CCOCC2)c1,,inactive: -3.84%
O=C(CC12CC3CC(CC(C3)C1)C2)NC(=S)Nc1ccc(CN2CCOCC2)cc1,"inconclusive: 23.1 µM [activator, single point]",
CCOc1ccc(NS(=O)(=O)c2ccc(C(=O)N3CCCC3)cc2)cc1,"inconclusive: 29.1 µM [activator, single point]",
O=c1[nH]c(CN2CCN(Cc3ccccc3)CC2)nc2scc(-c3ccccc3)c12,"inconclusive: 7.31 µM [activator, partial curve, poor fit]",
Cc1ccc(CSCc2nc3ccccc3[nH]2)cc1,"inconclusive: 29.1 µM [activator, single point]",
CC(CNS(=O)(=O)c1ccc(Cl)cc1)n1cncn1 (stereo not given),,inactive: -8.59%
CCCCCCn1c(COc2ccccc2F)nnc1SCC(=O)N1c2ccccc2NC(=O)C1(C)C,"inconclusive: 25.9 µM [activator, partial curve, poor fit]",
COCCCNC(=S)Nc1ccc(CC(=O)O)cc1,"inconclusive: 10.3 µM [activator, single point]",
CSc1ccccc1OCc1cc(C(=O)NCc2csc(C(C)C)n2)no1,,inactive: -13.4%
COc1cccc(/C=C/C(=O)c2cccc([N+](=O)[O-])c2)c1OC,"inconclusive: 29.1 µM [activator, partial curve, poor fit]",
O=C(COC(=O)c1ccc(CSc2ccc(Cl)cc2)cc1)Nc1ccccc1,"inconclusive: 6.51 µM [activator, single point]",
